Source: publication doi:10.1101/2020.02.24.954453

Tests used:
mCherry-UPF1 (human) [1] = molecular target: T1, mCherry-UPF1 (human) (UniProt Q92900); test: FRET or BRET
T1 sequence: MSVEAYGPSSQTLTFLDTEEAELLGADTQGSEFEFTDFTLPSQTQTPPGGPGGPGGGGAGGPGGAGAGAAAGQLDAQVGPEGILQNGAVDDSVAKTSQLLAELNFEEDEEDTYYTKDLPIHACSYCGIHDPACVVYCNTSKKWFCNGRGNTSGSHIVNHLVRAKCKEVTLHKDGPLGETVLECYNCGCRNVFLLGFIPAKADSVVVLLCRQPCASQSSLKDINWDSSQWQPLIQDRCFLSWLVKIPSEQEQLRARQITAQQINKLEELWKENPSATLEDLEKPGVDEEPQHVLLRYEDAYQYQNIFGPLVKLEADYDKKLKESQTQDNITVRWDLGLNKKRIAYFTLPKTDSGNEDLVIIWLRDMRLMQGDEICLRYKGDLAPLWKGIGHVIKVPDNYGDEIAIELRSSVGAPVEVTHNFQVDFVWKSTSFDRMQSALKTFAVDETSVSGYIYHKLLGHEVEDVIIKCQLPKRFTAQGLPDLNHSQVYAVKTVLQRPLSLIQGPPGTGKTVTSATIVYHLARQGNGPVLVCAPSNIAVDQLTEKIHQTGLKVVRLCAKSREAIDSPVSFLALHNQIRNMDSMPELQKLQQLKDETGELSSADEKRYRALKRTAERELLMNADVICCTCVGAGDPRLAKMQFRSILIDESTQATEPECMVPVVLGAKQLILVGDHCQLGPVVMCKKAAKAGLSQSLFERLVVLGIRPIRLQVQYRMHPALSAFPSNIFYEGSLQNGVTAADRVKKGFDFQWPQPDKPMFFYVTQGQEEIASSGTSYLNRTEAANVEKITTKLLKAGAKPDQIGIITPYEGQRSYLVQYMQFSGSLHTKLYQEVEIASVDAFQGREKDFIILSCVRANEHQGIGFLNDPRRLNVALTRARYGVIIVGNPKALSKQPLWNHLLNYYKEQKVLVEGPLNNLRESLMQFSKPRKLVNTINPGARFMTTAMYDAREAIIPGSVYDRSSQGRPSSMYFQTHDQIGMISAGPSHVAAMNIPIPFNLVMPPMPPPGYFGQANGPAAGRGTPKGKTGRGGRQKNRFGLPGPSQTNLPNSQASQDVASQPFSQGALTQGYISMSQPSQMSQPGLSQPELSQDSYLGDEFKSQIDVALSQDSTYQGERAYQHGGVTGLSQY

mCherry-UPF1 (human) [2] = molecular target: T1, mCherry-UPF1 (human); test: fluorescence cross-correlation spectroscopy
[3] = molecular target: T2, FLAG-tagged UPF1 C126S (human) (UniProt Q92900); test: co-IP
T2 sequence: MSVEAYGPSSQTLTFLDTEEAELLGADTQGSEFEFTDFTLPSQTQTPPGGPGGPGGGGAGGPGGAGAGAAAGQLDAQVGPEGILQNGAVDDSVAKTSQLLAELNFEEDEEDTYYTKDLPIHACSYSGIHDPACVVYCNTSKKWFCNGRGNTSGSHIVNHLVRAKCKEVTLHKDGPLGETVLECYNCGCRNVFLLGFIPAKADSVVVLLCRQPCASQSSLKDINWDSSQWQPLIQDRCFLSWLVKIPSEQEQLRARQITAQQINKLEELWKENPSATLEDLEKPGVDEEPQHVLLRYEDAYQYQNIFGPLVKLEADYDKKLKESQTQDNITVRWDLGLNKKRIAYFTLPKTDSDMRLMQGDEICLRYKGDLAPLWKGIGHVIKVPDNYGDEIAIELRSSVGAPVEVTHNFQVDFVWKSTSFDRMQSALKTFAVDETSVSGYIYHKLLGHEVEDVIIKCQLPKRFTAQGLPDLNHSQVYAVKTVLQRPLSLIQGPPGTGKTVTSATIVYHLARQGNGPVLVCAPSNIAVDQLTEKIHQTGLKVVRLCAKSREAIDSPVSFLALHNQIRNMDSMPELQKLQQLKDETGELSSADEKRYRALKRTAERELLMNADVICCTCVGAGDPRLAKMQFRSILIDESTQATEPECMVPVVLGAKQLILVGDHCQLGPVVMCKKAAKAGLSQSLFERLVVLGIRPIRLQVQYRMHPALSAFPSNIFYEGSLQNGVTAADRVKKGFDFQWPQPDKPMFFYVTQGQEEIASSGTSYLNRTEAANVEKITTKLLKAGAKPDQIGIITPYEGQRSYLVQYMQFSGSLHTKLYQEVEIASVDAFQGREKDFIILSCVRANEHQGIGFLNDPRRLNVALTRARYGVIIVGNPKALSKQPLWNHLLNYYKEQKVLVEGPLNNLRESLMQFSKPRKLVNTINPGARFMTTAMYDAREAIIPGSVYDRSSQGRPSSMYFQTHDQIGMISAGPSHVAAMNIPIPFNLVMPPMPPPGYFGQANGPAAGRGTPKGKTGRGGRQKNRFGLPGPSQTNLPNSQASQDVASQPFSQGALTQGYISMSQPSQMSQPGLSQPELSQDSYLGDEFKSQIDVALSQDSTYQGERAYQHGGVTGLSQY

FLAG-tagged UPF1 (human) = molecular target: T3, FLAG-tagged UPF1 (human) (UniProt Q92900); test: co-IP
T3 sequence: T2 sequence with S126C

[4] = molecular target: T4, endogenous UPF1 (human (endogenous in HeLa)) (UniProt Q92900); test: proximity ligation
T4 sequence: T1 sequence

binding (mCherry-UPF1 (human) [1]): binds
binding (mCherry-UPF1 (human) [2]): binds
Substance: GFP-NBAS (human)

binding [3]: binds
binding (FLAG-tagged UPF1 (human)): binds
Substance: T7-tagged NBAS (human)

binding [4]: binds
Substance: endogenous NBAS (human (endogenous in HeLa))

Residue numbers refer to the chain shown, from its start. No constants are given. Whether binding was seen depends on the method and setting. Binding can be weak; no strength is given. For some assays here: Binding seen in cells or lysates may run through a third protein. For some assays here: Tags and fused reporters may be left off the sequences shown. One block for each substance: values may come before it.
